These are yes or no findings as the source states them, for the method shown. In cells and extracts the contact can be indirect. A yes stands for co-enrichment or nearness to the bait. Other partners may have been found. For part of these data: Tags and fused reporters may be left off the sequences shown.
Tests used:
[1] = target: T1, Flag-USP29 (stably expressed in MDA-MB-231) (UniProt Q9HBJ7); experiment: affinity purification with mass spectrometry; tandem affinity purification of USP29 complexes from MDA-MB-231 cells stably expressing Flag-USP29
T1 sequence: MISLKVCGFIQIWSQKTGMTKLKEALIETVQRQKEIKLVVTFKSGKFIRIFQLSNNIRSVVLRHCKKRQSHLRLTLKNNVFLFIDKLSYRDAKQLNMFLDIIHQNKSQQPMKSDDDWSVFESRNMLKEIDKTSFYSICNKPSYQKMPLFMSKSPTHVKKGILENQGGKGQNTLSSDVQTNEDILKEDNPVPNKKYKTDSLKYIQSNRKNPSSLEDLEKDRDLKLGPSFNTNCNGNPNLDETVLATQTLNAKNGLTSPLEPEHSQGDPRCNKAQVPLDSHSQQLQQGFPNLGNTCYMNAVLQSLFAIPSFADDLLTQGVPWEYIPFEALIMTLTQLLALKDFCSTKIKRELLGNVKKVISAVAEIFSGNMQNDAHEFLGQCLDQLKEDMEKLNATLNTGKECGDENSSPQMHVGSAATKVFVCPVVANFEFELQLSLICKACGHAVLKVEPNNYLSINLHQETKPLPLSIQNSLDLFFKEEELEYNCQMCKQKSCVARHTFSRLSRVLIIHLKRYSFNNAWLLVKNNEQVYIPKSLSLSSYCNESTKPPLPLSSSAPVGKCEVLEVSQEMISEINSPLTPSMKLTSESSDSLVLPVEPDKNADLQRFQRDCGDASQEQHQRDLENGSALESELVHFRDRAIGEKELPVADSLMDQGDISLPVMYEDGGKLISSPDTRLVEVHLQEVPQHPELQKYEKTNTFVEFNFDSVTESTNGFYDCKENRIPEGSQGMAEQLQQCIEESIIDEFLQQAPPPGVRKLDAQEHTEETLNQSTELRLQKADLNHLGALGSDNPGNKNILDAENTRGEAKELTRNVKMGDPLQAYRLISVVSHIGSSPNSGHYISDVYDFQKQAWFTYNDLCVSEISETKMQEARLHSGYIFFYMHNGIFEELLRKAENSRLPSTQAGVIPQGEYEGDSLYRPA

The chains behind the UniProt entries cited, without tags or fusion partners.
UniProt Q15672: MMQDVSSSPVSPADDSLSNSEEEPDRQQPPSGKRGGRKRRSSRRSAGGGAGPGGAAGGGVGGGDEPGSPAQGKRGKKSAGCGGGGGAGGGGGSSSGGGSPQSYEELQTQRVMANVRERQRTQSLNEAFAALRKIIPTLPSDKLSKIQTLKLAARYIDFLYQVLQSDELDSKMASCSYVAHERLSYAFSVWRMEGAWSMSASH
UniProt Q9NVI1: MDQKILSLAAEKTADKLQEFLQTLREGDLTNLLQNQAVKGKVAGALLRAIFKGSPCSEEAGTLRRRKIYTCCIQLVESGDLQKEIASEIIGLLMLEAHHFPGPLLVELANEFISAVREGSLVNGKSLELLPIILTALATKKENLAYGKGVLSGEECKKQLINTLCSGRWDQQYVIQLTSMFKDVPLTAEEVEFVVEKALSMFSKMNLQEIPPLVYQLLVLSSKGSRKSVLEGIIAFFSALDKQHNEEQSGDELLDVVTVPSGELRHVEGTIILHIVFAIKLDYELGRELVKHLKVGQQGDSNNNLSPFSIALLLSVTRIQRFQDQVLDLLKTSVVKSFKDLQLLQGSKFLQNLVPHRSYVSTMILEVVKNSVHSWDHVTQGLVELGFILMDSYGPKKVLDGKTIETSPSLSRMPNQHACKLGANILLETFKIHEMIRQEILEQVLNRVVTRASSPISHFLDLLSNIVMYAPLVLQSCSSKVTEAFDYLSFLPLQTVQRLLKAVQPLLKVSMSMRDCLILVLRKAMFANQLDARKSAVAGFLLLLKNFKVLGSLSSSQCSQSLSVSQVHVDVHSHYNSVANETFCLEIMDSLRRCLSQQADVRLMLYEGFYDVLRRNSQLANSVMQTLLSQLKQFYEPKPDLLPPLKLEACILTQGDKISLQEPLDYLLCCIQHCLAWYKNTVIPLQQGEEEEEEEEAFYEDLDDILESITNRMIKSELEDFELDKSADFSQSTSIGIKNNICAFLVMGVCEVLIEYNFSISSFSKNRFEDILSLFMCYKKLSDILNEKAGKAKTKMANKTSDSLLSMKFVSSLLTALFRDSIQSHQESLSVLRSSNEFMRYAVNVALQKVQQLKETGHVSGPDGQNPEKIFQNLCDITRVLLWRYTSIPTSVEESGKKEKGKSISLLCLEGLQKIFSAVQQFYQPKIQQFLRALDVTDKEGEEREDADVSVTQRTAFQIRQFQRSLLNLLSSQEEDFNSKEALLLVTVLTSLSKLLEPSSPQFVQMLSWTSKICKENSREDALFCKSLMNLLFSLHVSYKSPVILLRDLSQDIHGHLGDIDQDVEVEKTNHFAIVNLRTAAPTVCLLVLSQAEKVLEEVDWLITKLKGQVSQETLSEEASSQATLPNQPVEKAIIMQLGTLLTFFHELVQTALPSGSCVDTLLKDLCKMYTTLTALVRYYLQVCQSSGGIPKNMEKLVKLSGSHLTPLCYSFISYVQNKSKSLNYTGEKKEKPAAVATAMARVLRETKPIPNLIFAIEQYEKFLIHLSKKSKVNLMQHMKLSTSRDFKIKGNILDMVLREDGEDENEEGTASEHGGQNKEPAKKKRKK

Flag-TWIST1 = Flag-TWIST1 (UniProt Q15672); experiment: affinity purification with mass spectrometry; tandem affinity purification of TWIST1 complexes from MDA-MB-231 cells stably expressing Flag-TWIST1

Molecule	binding [1]	binding (Flag-TWIST1)
FANCI (found with Flag-USP29 in MDA-MB-231) (from UniProt Q9NVI1 1-1328)	binds	
USP29 (endogenous) (enzyme, UniProt Q9HBJ7 1-922) MISLKVCGFIQIWSQKTGMTKLKEALIETVQRQKEIKLVVTFKSGKFIRIFQLSNNIRSVVLRHCKKRQSHLRLTLKNNVFLFIDKLSYRDAKQLNMFLDIIHQNKSQQPMKSDDDWSVFESRNMLKEIDKTSFYSICNKPSYQKMPLFMSKSPTHVKKGILENQGGKGQNTLSSDVQTNEDILKEDNPVPNKKYKTDSLKYIQSNRKNPSSLEDLEKDRDLKLGPSFNTNCNGNPNLDETVLATQTLNAKNGLTSPLEPEHSQGDPRCNKAQVPLDSHSQQLQQGFPNLGNTCYMNAVLQSLFAIPSFADDLLTQGVPWEYIPFEALIMTLTQLLALKDFCSTKIKRELLGNVKKVISAVAEIFSGNMQNDAHEFLGQCLDQLKEDMEKLNATLNTGKECGDENSSPQMHVGSAATKVFVCPVVANFEFELQLSLICKACGHAVLKVEPNNYLSINLHQETKPLPLSIQNSLDLFFKEEELEYNCQMCKQKSCVARHTFSRLSRVLIIHLKRYSFNNAWLLVKNNEQVYIPKSLSLSSYCNESTKPPLPLSSSAPVGKCEVLEVSQEMISEINSPLTPSMKLTSESSDSLVLPVEPDKNADLQRFQRDCGDASQEQHQRDLENGSALESELVHFRDRAIGEKELPVADSLMDQGDISLPVMYEDGGKLISSPDTRLVEVHLQEVPQHPELQKYEKTNTFVEFNFDSVTESTNGFYDCKENRIPEGSQGMAEQLQQCIEESIIDEFLQQAPPPGVRKLDAQEHTEETLNQSTELRLQKADLNHLGALGSDNPGNKNILDAENTRGEAKELTRNVKMGDPLQAYRLISVVSHIGSSPNSGHYISDVYDFQKQAWFTYNDLCVSEISETKMQEARLHSGYIFFYMHNGIFEELLRKAENSRLPSTQAGVIPQGEYEGDSLYRPA		binds
MYBBP1A (found with Flag-USP29 in MDA-MB-231) (protein, UniProt Q9BQG0 1-1328) MESRDPAQPMSPGEATQSGARPADRYGLLKHSREFLDFFWDIAKPEQETRLAATEKLLEYLRGRPKGSEMKYALKRLITGLGVGRETARPCYSLALAQLLQSFEDLPLCSILQQIQEKYDLHQVKKAMLRPALFANLFGVLALFQSGRLVKDQEALMKSVKLLQALAQYQNHLQEQPRKALVDILSEVSKATLQEILPEVLKADLNIILSSPEQLELFLLAQQKVPSKLKKLVGSVNLFSDENVPRLVNVLKMAASSVKKDRKLPAIALDLLRLALKEDKFPRFWKEVVEQGLLKMQFWPASYLCFRLLGAALPLLTKEQLHLVMQGDVIRHYGEHVCTAKLPKQFKFAPEMDDYVGTFLEGCQDDPERQLAVLVAFSSVTNQGLPVTPTFWRVVRFLSPPALQGYVAWLRAMFLQPDLDSLVDFSTNNQKKAQDSSLHMPERAVFRLRKWIIFRLVSIVDSLHLEMEEALTEQVARFCLFHSFFVTKKPTSQIPETKHPFSFPLENQAREAVSSAFFSLLQTLSTQFKQAPGQTQGGQPWTYHLVQFADLLLNHSHNVTTVTPFTAQQRQAWDRMLQTLKELEAHSAEARAAAFQHLLLLVGIHLLKSPAESCDLLGDIQTCIRKSLGEKPRRSRTKTIDPQEPPWVEVLVEILLALLAQPSHLMRQVARSVFGHICSHLTPRALQLILDVLNPETSEDENDRVVVTDDSDERRLKGAEDKSEEGEDNRSSESEEESEGEESEEEERDGDVDQGFREQLMTVLQAGKALGGEDSENEEELGDEAMMALDQSLASLFAEQKLRIQARRDEKNKLQKEKALRRDFQIRVLDLVEVLVTKQPENALVLELLEPLLSIIRRSLRSSSSKQEQDLLHKTARIFTHHLCRARRYCHDLGERAGALHAQVERLVQQAGRQPDSPTALYHFNASLYLLRVLKGNTAEGCVHETQEKQKAGTDPSHMPTGPQAASCLDLNLVTRVYSTALSSFLTKRNSPLTVPMFLSLFSRHPVLCQSLLPILVQHITGPVRPRHQACLLLQKTLSMREVRSCFEDPEWKQLMGQVLAKVTENLRVLGEAQTKAQHQQALSSLELLNVLFRTCKHEKLTLDLTVLLGVLQGQQQSLQQGAHSTGSSRLHDLYWQAMKTLGVQRPKLEKKDAKEIPSATQSPISKKRKKKGFLPETKKRKKRKSEDGTPAEDGTPAATGGSQPPSMGRKKRNRTKAKVPAQANGTPTTKSPAPGAPTRSPSTPAKSPKLQKKNQKPSQVNGAPGSPTEPAGQKQHQKALPKKGVLGKSPLSALARKKARLSLVIRSPSLLQSGAKKKAQVRKAGKP	binds	

— paper PMC10104637, “Phosphorylation of USP29 by CDK1 Governs TWIST1 Stability and Oncogenic Functions” (Advanced Science, 2023)
